Measured values taken from publication doi:10.1101/483123.

Assays:
[1] = target: T18 fusion to the PorM periplasmic domain (Porphyromonas gingivalis ATCC33277) (UniProt B2RLE8); experiment: two-hybrid
[2] = target: FLAG-tagged PorM periplasmic domain, exported to the periplasm (Porphyromonas gingivalis ATCC33277) (UniProt B2RLE8); experiment: co-IP
[3] = target: full-length FLAG-tagged PorM (Porphyromonas gingivalis ATCC33277) (UniProt B2RLE8); experiment: co-IP
[4] = target: full-length FLAG-tagged PorN (Porphyromonas gingivalis ATCC33277) (UniProt B2RLE7); experiment: co-IP

Row | Substance | binding [1] | binding [2] | binding [3] | binding [4]
1 | T25-RgpB CTD (C-terminal domain of the RgpB arginine-specific cysteine proteinase) (from UniProt B2RKU0 661-736) (domain or fragment) | binds | – | – | –
2 | T25-PorU CTD (C-terminal domain of the PorU attachment complex protein) (from UniProt B2RGP6) (domain or fragment) | binds | – | – | –
3 | T25-PpaD CTD (C-terminal domain of the PpaD peptidyl-arginine deiminase) (from UniProt Q9RQJ2) (domain or fragment) | binds | – | – | –
4 | periplasmically-targeted VSV-G-tagged RgpB CTD (from UniProt B2RKU0 661-736) (domain or fragment) | – | binds | binds | binds

These are yes or no findings as the source states them, for the method shown. Binding calls can cover weak binding; strength is not graded here. For part of these data: In cells and extracts the contact can be indirect.
